Reference: PubChem BioAssay AID1671190 (National Center for Advancing Translational Sciences (NCATS), 2021)
Values joined by “and” are separate entries in the source; they are usually repeats but may differ in a detail not shown here. Identical values can stand only once. About 6,100 (1.1%) of roughly 580,000 compounds were called active. Inconclusive means that the source gave no clear call. Such entries were picked first, then a sample of the others. Calls come from the whole dose curve; as a rule, active = well fitted inhibition curve with a large enough effect; inconclusive = small, poorly fitted or top-dose-only effect, or another doubt; inactive = no such curve, though single readings can be large or run the other way. Potencies beside an inconclusive call are fits to weak or partial responses and may not hold up.

By UniProt entry, the sequences of proteins in these tests, tags left out. Where a name states a change or a piece, a line headed by the entry shows the natural chain unless it says otherwise.
UniProt P18054: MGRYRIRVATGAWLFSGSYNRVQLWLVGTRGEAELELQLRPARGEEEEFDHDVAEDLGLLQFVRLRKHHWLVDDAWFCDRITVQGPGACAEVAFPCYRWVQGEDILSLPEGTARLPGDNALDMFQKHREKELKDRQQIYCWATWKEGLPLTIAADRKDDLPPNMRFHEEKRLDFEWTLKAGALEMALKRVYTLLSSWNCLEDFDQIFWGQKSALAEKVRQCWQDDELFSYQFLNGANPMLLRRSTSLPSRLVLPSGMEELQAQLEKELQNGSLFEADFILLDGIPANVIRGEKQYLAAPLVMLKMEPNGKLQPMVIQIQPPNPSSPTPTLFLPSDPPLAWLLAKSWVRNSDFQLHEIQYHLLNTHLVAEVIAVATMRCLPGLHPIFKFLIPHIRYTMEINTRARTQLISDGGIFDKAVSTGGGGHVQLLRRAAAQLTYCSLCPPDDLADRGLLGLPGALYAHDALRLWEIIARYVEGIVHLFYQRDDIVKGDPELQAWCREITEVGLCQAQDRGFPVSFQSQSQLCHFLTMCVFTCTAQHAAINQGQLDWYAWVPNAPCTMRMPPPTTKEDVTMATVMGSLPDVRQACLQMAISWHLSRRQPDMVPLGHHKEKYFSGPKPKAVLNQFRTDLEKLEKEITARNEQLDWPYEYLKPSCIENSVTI

target: Polyunsaturated fatty acid lipoxygenase ALOX12 (Homo sapiens) (UniProt P18054); assay: Primary qHTS assay for inhibitors of human arachidonate 12S-lipoxygenase (ALOX12): Round 2; details: purified 12hLO, xylenol orange hydroperoxide absorbance; activity change, negative = inhibition: at 108 µM (top of the series) unless noted
Procedure, shortened: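 Purified human 12hLO (150 nM final) in 25 mM Hepes, 0.01% Triton X-100, pH 7.0 was preincubated 15 min at room temperature with compound. Then 40 uM arachidonic acid was added, 30 min. Hydroperoxide was read by Fe-XO absorbance ratio 573/405 nm.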
% is set by controls: 0 for no effect and ±100 for the full control effect; potency is the fitted concentration of half-maximal effect.

SMILES | activity change, negative = inhibition | Potency
N#CCCN1CCN(c2ccc(NC(=O)c3ccc(F)cc3)c(C(=O)O)c2)CC1 | inactive: 5.07% | –
CCC(=O)c1ccc(Oc2cc(C#N)c(C#N)cc2N2CCOCC2)cc1 | inactive: 55.1% | –
C[C@H](c1ccc(F)cc1CCCC(=O)O)N(c1cc(F)ccc1F)S(=O)(=O)c1ccc(Cl)cc1 | – | inconclusive: 17.2 µM [inhibitor, partial curve]
CC(C)NC(=O)C1CCc2nnc(CNC(=O)C3CC3)n21 (stereo not drawn) | – | inconclusive: 11.2 µM [inhibitor, full curve, poor fit]
CCOC(=O)c1c(NC(=O)COC(=O)Cn2cnc3ccccc32)sc2c1CCC(C)C2 (stereo not drawn) | – | inconclusive: 39.8 µM [inhibitor, partial curve, poor fit]
Cc1nc(SCC(=O)Nc2ccc(S(=O)(=O)N3CCOCC3)cc2)n(C2CCCCC2)c1C | – | inconclusive: 50.1 µM [inhibitor, partial curve, poor fit]
Cc1ccc(Cn2c(=N)n(CC(=O)c3ccc([N+](=O)[O-])cc3)c3ccccc32)cc1 | – | inconclusive: 39.8 µM [inhibitor, partial curve, poor fit]
Cc1ccc2[nH]cc(C(C(=O)O)N3CCN(c4nsc5ccccc45)CC3)c2c1 (stereo not drawn) | inactive: -1.87% | –
COc1ccc(Br)cc1CSc1nnc(C2CC2)n1C1CC1 | – | inconclusive: 100 µM [inhibitor, single point]
C=C1C(=O)OC2C1C(OC(=O)C(C)=CC)CC(=C)C1C(O)C3OC3(C)C21O (stereo not drawn) | inactive: 12.5% | –
CN(C)S(=O)(=O)c1cccc(NC(=O)Cc2cc(Cl)c3c(c2)OCCCO3)c1 | – | inconclusive: 44.7 µM [inhibitor, partial curve, poor fit]
CN(Cc1ccccc1)C(=O)c1cc(-c2cccnc2)nc2ccccc12 | – | inconclusive: 79.4 µM [inhibitor, partial curve, poor fit]
O=C(O)CS(=O)(=O)Cc1ccc(Cl)cc1 | – | inconclusive: 0.316 µM [inhibitor, full curve, poor fit]
O=C(/C=C/c1ccc2c(c1)OCO2)c1ccccn1 | – | inconclusive: 89.1 µM [inhibitor, single point]
CCCCN(C(=O)c1cc(Cl)nc2ccccc12)c1c(N)n(Cc2ccccc2)c(=O)[nH]c1=O | – | inactive and inconclusive: 39.8 µM [inhibitor, partial curve]
CNc1nc(-c2ccc3c(c2)OCO3)nc2ccccc12 | – | inconclusive: 11.2 µM [inhibitor, full curve, poor fit]
CC1(C)CCC2=C(O1)c1ccccc1C(=O)C2=O | – | inconclusive: 19.3 µM [inhibitor, partial curve, poor fit] and inconclusive: 39.8 µM [inhibitor, partial curve]
N[C@@H](Cc1cc(-c2ccc(Cl)cc2Cl)cc(CP(=O)(O)O)c1O)C(=O)O | inactive: 167% | –
CC1Sc2ccc(C(=O)Nc3nc(-c4cccnc4)cs3)cc2NC1=O (stereo not drawn) | inactive: 42.1% | –
Brc1ccc(-c2nc(-c3cccnc3)no2)cc1 | inactive: 7.61% | –
Cc1cccc(Nc2nc(N)c([N+](=O)[O-])c(NCCO)n2)c1 | – | inconclusive: 126 µM [inhibitor, partial curve, poor fit]
Cn1c(=O)c(C(=O)NCCO)c(O)c2ccccc21 | – | inconclusive: 11.2 µM [inhibitor, partial curve, poor fit]

SMILES | activity change, negative = inhibition | Potency
COC(=O)c1ccc2c(=O)[nH]c(CN(C)CC(=O)Nc3cccc(F)c3)nc2c1 | inactive: 30.1% | –
CCC(=O)NC(c1cccs1)c1cc(Cl)c2cccnc2c1O (stereo not drawn) | inactive: -6.78% | –
CN(CC(=O)Nc1cccc(F)c1)C(=O)CNS(=O)(=O)c1ccc(N(C)C)c([N+](=O)[O-])c1 | – | inconclusive: 44.7 µM [inhibitor, partial curve, poor fit]
CCN1c2cc(C(=O)Nc3cccc(Cl)c3)ccc2C(=O)N2CCCC21 (stereo not drawn) | – | inconclusive: 5.01 µM [inhibitor, full curve]
Cc1noc([C@@H]2CN(C(=O)c3cccc(C(F)(F)F)c3)C[C@H]2C(N)=O)n1 | inactive: 29.8% | –
Cc1ccc(S(=O)(=O)N(CC(=O)NCC2CCCO2)c2ccccc2C)cc1 (stereo not drawn) | inactive: -16.5% | –
CNC(=O)c1sc(-c2cccs2)nc1C | – | inconclusive: 79.4 µM [inhibitor, partial curve, poor fit]
COc1cccc(NC(=O)C2(C)CCN2C(=O)Cc2ccc(C(C)C)cc2)c1 (stereo not drawn) | – | inconclusive: 89.1 µM [inhibitor, single point]
C=CCNc1nc(-c2ccccc2)c(C(=O)OCC)cc1C#N | inactive: 14.8% | –
c1ccc2c(NC3CCCC3)ncnc2c1 | inactive: -54.2% | –
O=C(CSc1nnc(Nc2ccccc2F)s1)NC(=O)CN1CCCC1=O | inactive: 20.4% | –
Cc1cccc(NC(=O)Nc2ccc(F)c(Cl)c2)n1 | inactive: 8.18% | –
CCSc1nnc(NC(=O)NC(C)(C(F)(F)F)C(F)(F)F)s1 | inactive: -13.4% | –
CCSc1nc2c(c(=O)[nH]c(=O)n2C)n1CC(O)COc1ccccc1 (stereo not drawn) | – | inconclusive: 0.355 µM [inhibitor, full curve]
COc1ccccc1CNc1nc(C)c(C(=O)N(C)C)s1 | – | inconclusive: 50.1 µM [inhibitor, partial curve, poor fit]
CN(C)c1ccc(Nc2nc(-c3ccc([N+](=O)[O-])cc3)nc3ccccc23)cc1 | – | inconclusive: 50.1 µM [inhibitor, partial curve, poor fit]
Cc1ccc(-n2c(=O)c3cccnc3n2CC(=O)Nc2ccc(F)cc2F)cc1C | inactive: -4.07% | –
O=C(O)Cc1cccn1-c1cccc(Cl)c1 | – | inconclusive: 22.4 µM [inhibitor, full curve]
C=CCN1CC(=O)N2C(C)c3[nH]c4ccccc4c3C[C@H]2C1=O (stereo partly drawn) | – | inconclusive: 39.8 µM [inhibitor, partial curve, poor fit]
O=C(CCn1ccc2ccccc21)N1CCN(S(=O)(=O)c2cccc(F)c2)CC1 | – | inconclusive: 28.2 µM [inhibitor, single point]
Cc1cccc(NC(=O)c2nc3ccccc3nc2N2CCOCC2)c1C | – | inconclusive: 31.6 µM [inhibitor, single point]
